These are yes or no findings as the source states them, for the method shown. Binding seen in cells or lysates may run through a third protein. Some results given as binding are weak or reduced against the parent protein; the word gives no strength.
Biological target: native CX3CL1 in the BRET assay (human) (UniProt P78423)
Experiment: FRET or BRET; BRET between copies of the same CX3CL1 form; methods not shown (supplementary Fig. S1)

Amino acid sequences for entries named in this document (tags omitted). Residues count along the entry.
UniProt P78423, residues 25-397: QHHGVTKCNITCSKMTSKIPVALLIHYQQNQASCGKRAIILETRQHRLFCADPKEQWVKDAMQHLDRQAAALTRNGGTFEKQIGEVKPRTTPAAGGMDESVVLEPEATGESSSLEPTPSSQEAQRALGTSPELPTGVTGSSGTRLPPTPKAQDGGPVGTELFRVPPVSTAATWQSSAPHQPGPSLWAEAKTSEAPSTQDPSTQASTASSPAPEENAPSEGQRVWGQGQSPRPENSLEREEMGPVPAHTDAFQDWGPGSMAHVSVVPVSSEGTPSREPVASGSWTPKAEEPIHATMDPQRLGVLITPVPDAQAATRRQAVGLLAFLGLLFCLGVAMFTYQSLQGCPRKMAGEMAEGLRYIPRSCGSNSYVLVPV

- binding: binds
Substance: native CX3CL1 in the BRET assay (from UniProt P78423 25-397) (ligand)

— paper PMC4265755
